Experimental findings from article PMC7819943, “Rice protein-binding microarrays: a tool to detect cis-acting elements near promoter regions in rice” are described below.

Chains of the proteins cited; added tags and fusions are not shown.
UniProt Q0JBA9, entry or part of it: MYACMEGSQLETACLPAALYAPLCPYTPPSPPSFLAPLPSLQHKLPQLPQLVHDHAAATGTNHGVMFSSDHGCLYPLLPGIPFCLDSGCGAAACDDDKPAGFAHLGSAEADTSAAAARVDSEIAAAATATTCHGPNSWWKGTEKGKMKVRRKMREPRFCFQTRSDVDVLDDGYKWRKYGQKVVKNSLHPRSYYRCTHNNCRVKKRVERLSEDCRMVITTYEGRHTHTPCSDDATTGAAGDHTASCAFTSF

The other results are listed elsewhere or left out.

This assay addresses OsWRKY34 (Oryza sativa, UniProt Q0JBA9 1-250). Put plainly: protein-binding microarray (RPBM); PBS, 2% BSA, 51.3 ng/ul salmon testes DNA, 50 uM zinc acetate, 200 nM TF, 25 C, 1 h; high values mean tight binding. The conditions noted are these: protein: recombinant; tags: N-terminal polyhistidine and DsRed monomer fusion (pET32a); label: CyDye5-dUTP incorporated in the synthesized complementary strand; 3' TTTTT single-stranded linker to array surface; dsDNA, one strand shown. An outline of the steps:
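A custom Agilent array was converted to double-stranded form by primer extension with Cy5-dUTP and blocked with 2% BSA. Protein at 200 nM in PBS with 2% BSA, salmon testes DNA and 50 µM zinc acetate was applied for 1 h at 25 °C, followed by washing. The proteins were polyhistidine–DsRed N-terminal fusions of transcription factors, expressed in E. coli BL21-CodonPlus and Ni–NTA-purified. The binding signal is per-feature fluorescence intensity (arbitrary units) from an Axon 4000B scanner.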
Consider “AGGCCCGCGACATCTGCACCGCCTTCCCCAATGTAACTTACGGAGTCACCTAGTGCAG”, for which the binding signal was 8080 fluorescence intensity (a.u.).

In the case of “TTGCTCTTCTTTTTTCAGTAGTATTTTTTCCCCTGGGTGACGGAGTCACCTAGTGCAG”, the binding signal was 8150 fluorescence intensity (a.u.).

On to “ATTTCTTGCTTCTACTTTATTTTCTGAATTATGCTGATATCGGAGTCACCTAGTGCAG”, for which the binding signal is 11000 fluorescence intensity (a.u.).

In the case of “CTTGTTCCTAGCTGCATGCAATACCTTTTCCCATTAAAAACGGAGTCACCTAGTGCAG”, the binding signal was 8530 fluorescence intensity (a.u.).

As to “GTCCGCTTCTTCTTCGGCCCCGCCATCATGGCCGCCGCGTCGGAGTCACCTAGTGCAG”, the binding signal is 8480 fluorescence intensity (a.u.).

For “CGAATCTCAATCCACAGGCTCACACTGATACGCAACGCACCGGAGTCACCTAGTGCAG”, the binding signal was 8230 fluorescence intensity (a.u.).

With “TTCTTCCCCGCGCGGCCCACGTAGCCCACACGCATACAACCGGAGTCACCTAGTGCAG”, the binding signal was 8820 fluorescence intensity (a.u.).

Regarding “GCTTCCCTGCTTTCTACTTCACGTACCGTCATTGATGTACCGGAGTCACCTAGTGCAG”, the binding signal was 9580 fluorescence intensity (a.u.).

For the sequence “GACCTCTGTTGCGTTTTCCTCACGTCCAACTTCCTCTCAGCGGAGTCACCTAGTGCAG”, the binding signal is 11000 fluorescence intensity (a.u.).

For the sequence “CCTCGACCGTCCCCAACCGACGACCCCGTGGTCACGCTCCCGGAGTCACCTAGTGCAG”, the binding signal is 10900 fluorescence intensity (a.u.).

In the case of “AGACCACCACACAATCACACATGCACATCCATTCAACTTTCGGAGTCACCTAGTGCAG”, the binding signal is 13300 fluorescence intensity (a.u.).

In the case of “ACCTGCATCCGATCGGACCAACGCAAACACCGCGATCCCGCGGAGTCACCTAGTGCAG”, the binding signal was 8590 fluorescence intensity (a.u.).

As for “TCTCCATCTACCACTACTAGTTTATTGTTTGAGAGATTCACGGAGTCACCTAGTGCAG”, the binding signal is 8180 fluorescence intensity (a.u.).

For the sequence “CCTTCTTCCGGCACGCCTTGCACCGGTTCTTCGCCTTCGTCGGAGTCACCTAGTGCAG”, the binding signal is 8550 fluorescence intensity (a.u.).

In the case of “GTCTCCGCCATCGTTGTCGCCGTCGCCTCGCGCCACCACGCGGAGTCACCTAGTGCAG”, the binding signal is 8230 fluorescence intensity (a.u.).

On to “ACCATTCACTTTTCCTACCTACCTACACTTCTTAACCAATCGGAGTCACCTAGTGCAG”, for which the binding signal was 10600 fluorescence intensity (a.u.).

Turning to “CCCCAAAATTTTCAACGCGCCCTTTCACACTTTCGTGTCGCGGAGTCACCTAGTGCAG”, the binding signal was 8650 fluorescence intensity (a.u.).

“ATGTTGACTCGTTTGCCTGTGTTCCTCTTGCTGCTATTCACGGAGTCACCTAGTGCAG”: the binding signal was 19200 fluorescence intensity (a.u.).

As to “TCGAGGTCTCGCCTGAGTCCTCATCCTGCCAAGTGCTAGCCGGAGTCACCTAGTGCAG”, the binding signal is 8140 fluorescence intensity (a.u.).

In the case of “TTATTCGGGGCAGTTCTTTCTTTGATACACTAACTTTGAGCGGAGTCACCTAGTGCAG”, the binding signal is 8600 fluorescence intensity (a.u.).

Turning to “GCCTTGTCGTCTTGGTATTGCACGTTACTACTACTACTAGCGGAGTCACCTAGTGCAG”, the binding signal is 11000 fluorescence intensity (a.u.).

As to “TCGCCGCTTTTCTCCATTGACACCTTTGTTTCCCATCTCTCGGAGTCACCTAGTGCAG”, the binding signal was 11300 fluorescence intensity (a.u.).

Turning to “ACCGCTCACCAACCCCGGCTGCCTCACCGGCTCCGGCCACCGGAGTCACCTAGTGCAG”, the binding signal is 8550 fluorescence intensity (a.u.).

As for “TATTTAGCATCATTTTTGTTTTTTTTCACAACATATGTAACGGAGTCACCTAGTGCAG”, the binding signal is 8410 fluorescence intensity (a.u.).

Turning to “AAAATTATAATGGCATGGTTCCAATTTTCCCCAATTTTTACGGAGTCACCTAGTGCAG”, the binding signal was 8310 fluorescence intensity (a.u.).

As for “CAAGTATACAACTAGTCATGCACCCTGCAGGTTGACTTTACGGAGTCACCTAGTGCAG”, the binding signal was 8360 fluorescence intensity (a.u.).

Turning to “CTCATCGATCAAAGGTTGCCACTTTAATTGCCTTATAATACGGAGTCACCTAGTGCAG”, the binding signal is 9570 fluorescence intensity (a.u.).

Consider “GCAACGTTCGACCACTCGTTTCATTCATTTTTTTTGAAATCGGAGTCACCTAGTGCAG”, for which the binding signal was 10800 fluorescence intensity (a.u.).

As to “AGGTAGGGAGGGTTTTACAAGGACCTACGCGTTTTCCATGCGGAGTCACCTAGTGCAG”, the binding signal was 9400 fluorescence intensity (a.u.).

As to “AAATATGATTAATATTTTATGCGCGACTTGTCTTTTTAATCGGAGTCACCTAGTGCAG”, the binding signal was 8280 fluorescence intensity (a.u.).

For the sequence “ATTTTCAGTGAAGTCGCATTATCTTGCCTTGGTACATTCACGGAGTCACCTAGTGCAG”, the binding signal is 10800 fluorescence intensity (a.u.).

For the sequence “GATTCTCGCCCCGCACGCGACCTCGCATTTACGACAGATCCGGAGTCACCTAGTGCAG”, the binding signal was 9640 fluorescence intensity (a.u.).

Turning to “CGATCCGTCCATCCATCCAGCGCGCGTCGGCCCGTCCATCCGGAGTCACCTAGTGCAG”, the binding signal was 9350 fluorescence intensity (a.u.).

As for “GGGTATGCAGCTGTAGTATATGTTTCTTGATGTCTTCTTTCGGAGTCACCTAGTGCAG”, the binding signal is 11300 fluorescence intensity (a.u.).

For “CCTATCACATCGAACGTTTGAACACCTGCATAAAGTATTACGGAGTCACCTAGTGCAG”, the binding signal is 8170 fluorescence intensity (a.u.).

Regarding “GTCGGTAATCCTTCAAGAGCGCCGGCGCTTCTTTCTTCGGCGGAGTCACCTAGTGCAG”, the binding signal is 8400 fluorescence intensity (a.u.).

Turning to “TTCATATTCTTTTTTTTTTCGAGGTCATACTTTTTAATTCCGGAGTCACCTAGTGCAG”, the binding signal is 12200 fluorescence intensity (a.u.).

As for “GAACAGCTTTCACCTGGCACTCCGTACAACCGCTCATCCTCGGAGTCACCTAGTGCAG”, the binding signal is 8400 fluorescence intensity (a.u.).

As to “GGCAGCACGACTTGTAAAGCAACTGGACATAATGAATTCTCGGAGTCACCTAGTGCAG”, the binding signal was 8340 fluorescence intensity (a.u.).

Regarding “CCCACGCTTGCCATTCTGCCGCTTAACGTAGCCACGTCAACGGAGTCACCTAGTGCAG”, the binding signal is 9040 fluorescence intensity (a.u.).

For the sequence “TCGCCTCTCGTTGCCCGCCGCGTCGCGCTCACGAGATCCCCGGAGTCACCTAGTGCAG”, the binding signal was 9100 fluorescence intensity (a.u.).

On to “CTACCTTACCATTTCGATCACATCGGCAGAAACGGCTACTCGGAGTCACCTAGTGCAG”, for which the binding signal was 8440 fluorescence intensity (a.u.).
